From article PMC12229497, “The intracellular bacterium Orientia tsutsugamushi uses the autotransporter ScaC to activate BICD adaptors for dynein-based motility” (Nature Communications, 2025)
No constants are given. Whether binding was seen depends on the method and setting. In cells and extracts the contact can be indirect. These calls come from enrichment with a bait or labelling near it, and not all partners need be listed. Where a sequence is shown, tags or fusion partners need not be part of it.

Amino acid sequences for entries named in this document (tags omitted).
UniProt Q8TD16: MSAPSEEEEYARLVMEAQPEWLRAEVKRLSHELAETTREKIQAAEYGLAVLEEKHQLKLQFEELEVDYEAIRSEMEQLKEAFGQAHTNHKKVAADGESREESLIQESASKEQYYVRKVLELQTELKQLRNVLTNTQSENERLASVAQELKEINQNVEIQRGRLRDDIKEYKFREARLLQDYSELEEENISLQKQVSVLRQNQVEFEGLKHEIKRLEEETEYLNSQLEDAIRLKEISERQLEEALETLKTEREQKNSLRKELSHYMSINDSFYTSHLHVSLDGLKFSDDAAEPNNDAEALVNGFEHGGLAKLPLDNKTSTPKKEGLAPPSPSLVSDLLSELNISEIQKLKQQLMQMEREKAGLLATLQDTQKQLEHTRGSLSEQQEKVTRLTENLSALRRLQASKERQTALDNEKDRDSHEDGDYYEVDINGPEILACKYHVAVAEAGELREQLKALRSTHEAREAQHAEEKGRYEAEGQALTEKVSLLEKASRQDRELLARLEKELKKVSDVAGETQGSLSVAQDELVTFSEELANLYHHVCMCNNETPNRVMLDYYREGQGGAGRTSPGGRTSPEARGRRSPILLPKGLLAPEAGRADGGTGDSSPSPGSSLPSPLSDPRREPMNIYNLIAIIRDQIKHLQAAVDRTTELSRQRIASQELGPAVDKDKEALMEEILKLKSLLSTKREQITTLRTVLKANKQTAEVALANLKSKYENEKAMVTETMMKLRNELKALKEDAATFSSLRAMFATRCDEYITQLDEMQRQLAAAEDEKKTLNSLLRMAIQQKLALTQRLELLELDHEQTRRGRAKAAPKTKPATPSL

T1: GFP-ScaC (passenger domain of ScaC, residues 33–223, N-terminal eGFP) (Orientia tsutsugamushi) (UniProt I6Z768)
T1 sequence: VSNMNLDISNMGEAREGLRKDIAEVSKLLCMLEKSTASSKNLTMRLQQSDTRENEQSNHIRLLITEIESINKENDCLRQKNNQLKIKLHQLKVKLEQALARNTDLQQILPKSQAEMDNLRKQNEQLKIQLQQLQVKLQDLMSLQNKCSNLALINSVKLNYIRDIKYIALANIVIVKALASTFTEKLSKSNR

B1: BICD1 (human, endogenous) (protein, UniProt Q96G01 1-975)
chain: MAAEEVLQTVDHYKTEIERLTKELTETTHEKIQAAEYGLVVLEEKLTLKQQYDELEAEYDSLKQELEQLKEAFGQSFSIHRKVAEDGETREETLLQESASKEAYYLGKILEMQNELKQSRAVVTNVQAENERLTAVVQDLKENNEMVELQRIRMKDEIREYKFREARLLQDYTELEEENITLQKLVSTLKQNQVEYEGLKHEIKRFEEETVLLNSQLEDAIRLKEIAEHQLEEALETLKNEREQKNNLRKELSQYISLNDNHISISVDGLKFAEDGSEPNNDDKMNGHIHGPLVKLNGDYRTPTLRKGESLNPVSDLFSELNISEIQKLKQQLMQVEREKAILLANLQESQTQLEHTKGALTEQHERVHRLTEHVNAMRGLQSSKELKAELDGEKGRDSGEEAHDYEVDINGLEILECKYRVAVTEVIDLKAEIKALKEKYNKSVENYTDEKAKYESKIQMYDEQVTSLEKTTKESGEKMAHMEKELQKMTSIANENHSTLNTAQDELVTFSEELAQLYHHVCLCNNETPNRVMLDYYRQSRVTRSGSLKGPDDPRGLLSPRLARRGVSSPVETRTSSEPVAKESTEASKEPSPTKTPTISPVITAPPSSPVLDTSDIRKEPMNIYNLNAIIRDQIKHLQKAVDRSLQLSRQRAAARELAPMIDKDKEALMEEILKLKSLLSTKREQIATLRAVLKANKQTAEVALANLKNKYENEKAMVTETMTKLRNELKALKEDAATFSSLRAMFATRCDEYVTQLDEMQRQLAAAEDEKKTLNTLLRMAIQQKLALTQRLEDLEFDHEQSRRSKGKLGKSKIGSPKVSGEASVTVPTIDTYLLHSQGPQTPNIRVSSGTQRKRQFSPSLCDQSRPRTSGASYLQNLLRVPPDPTSTESFLLKGPPSMSEFIQGHRLSKEKRLTVAPPDCQQPAASVPPQCSQLAGRQDCPTVSPDTALPEEQPHSSSQCAPLHCLSKPPHP

Biological target: T1, GFP-ScaC (passenger domain of ScaC, residues 33–223, N-terminal eGFP) (Orientia tsutsugamushi)
Assay: affinity purification with mass spectrometry; GFP-trap magnetic beads on lysates of HeLa Flp-In cells expressing GFP-ScaC (GFP as control); 10 mM Tris pH 7.5, 150 mM NaCl, 0.5 mM EDTA; on-bead trypsin digest, LC-MS/MS; n = 3

Row | Molecule | binding
1 | BICD2 (human, endogenous) (from UniProt Q8TD16 1-824) | binds
2 | B1 | binds
